Results as given in the supplement of paper PMC7666118.
The list shows a part of the results.

Protein sequences, listed by entry. Tags and fused reporters are not part of them. Lines headed by an entry give the natural chain unless they say otherwise; changes in a name come on top.
UniProt Q9NVZ3: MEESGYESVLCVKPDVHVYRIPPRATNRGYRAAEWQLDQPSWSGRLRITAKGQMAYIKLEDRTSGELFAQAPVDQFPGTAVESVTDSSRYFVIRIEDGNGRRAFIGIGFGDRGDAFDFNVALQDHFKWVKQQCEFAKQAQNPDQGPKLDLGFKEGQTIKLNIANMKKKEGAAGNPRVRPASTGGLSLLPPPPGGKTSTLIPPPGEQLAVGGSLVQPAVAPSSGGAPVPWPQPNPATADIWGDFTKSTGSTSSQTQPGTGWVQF
UniProt Q16718, whole entry: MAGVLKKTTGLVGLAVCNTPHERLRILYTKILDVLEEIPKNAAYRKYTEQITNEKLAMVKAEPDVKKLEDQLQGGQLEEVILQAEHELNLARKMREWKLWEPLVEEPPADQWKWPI
UniProt P35240: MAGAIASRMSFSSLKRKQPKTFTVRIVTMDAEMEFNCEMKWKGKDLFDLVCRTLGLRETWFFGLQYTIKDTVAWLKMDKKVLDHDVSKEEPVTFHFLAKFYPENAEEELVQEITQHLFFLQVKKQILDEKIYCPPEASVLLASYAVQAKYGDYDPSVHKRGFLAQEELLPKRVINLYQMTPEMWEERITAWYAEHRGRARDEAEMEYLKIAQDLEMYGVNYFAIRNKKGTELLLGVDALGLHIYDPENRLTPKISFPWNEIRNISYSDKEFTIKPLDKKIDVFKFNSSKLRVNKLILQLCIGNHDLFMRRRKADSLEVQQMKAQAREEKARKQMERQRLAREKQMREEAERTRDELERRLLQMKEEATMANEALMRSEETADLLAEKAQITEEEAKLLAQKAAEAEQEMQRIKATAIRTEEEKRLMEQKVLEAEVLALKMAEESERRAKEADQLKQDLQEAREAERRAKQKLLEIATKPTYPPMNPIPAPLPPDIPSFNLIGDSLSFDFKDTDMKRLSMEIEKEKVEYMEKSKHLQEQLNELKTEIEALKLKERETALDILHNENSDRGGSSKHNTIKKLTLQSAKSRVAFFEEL
UniProt Q9H6Q4: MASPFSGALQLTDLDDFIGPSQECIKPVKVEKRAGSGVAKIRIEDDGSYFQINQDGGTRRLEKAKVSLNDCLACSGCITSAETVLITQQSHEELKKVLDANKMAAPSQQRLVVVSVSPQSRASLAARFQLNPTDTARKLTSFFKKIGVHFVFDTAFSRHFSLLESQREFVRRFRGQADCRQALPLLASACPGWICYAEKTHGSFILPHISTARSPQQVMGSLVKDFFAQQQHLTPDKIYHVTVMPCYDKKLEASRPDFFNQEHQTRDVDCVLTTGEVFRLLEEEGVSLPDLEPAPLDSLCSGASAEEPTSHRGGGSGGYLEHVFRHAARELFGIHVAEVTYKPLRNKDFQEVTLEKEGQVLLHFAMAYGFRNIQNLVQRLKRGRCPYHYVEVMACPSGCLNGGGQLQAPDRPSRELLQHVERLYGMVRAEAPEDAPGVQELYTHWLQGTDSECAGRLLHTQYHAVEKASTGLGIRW
UniProt Q76FK4: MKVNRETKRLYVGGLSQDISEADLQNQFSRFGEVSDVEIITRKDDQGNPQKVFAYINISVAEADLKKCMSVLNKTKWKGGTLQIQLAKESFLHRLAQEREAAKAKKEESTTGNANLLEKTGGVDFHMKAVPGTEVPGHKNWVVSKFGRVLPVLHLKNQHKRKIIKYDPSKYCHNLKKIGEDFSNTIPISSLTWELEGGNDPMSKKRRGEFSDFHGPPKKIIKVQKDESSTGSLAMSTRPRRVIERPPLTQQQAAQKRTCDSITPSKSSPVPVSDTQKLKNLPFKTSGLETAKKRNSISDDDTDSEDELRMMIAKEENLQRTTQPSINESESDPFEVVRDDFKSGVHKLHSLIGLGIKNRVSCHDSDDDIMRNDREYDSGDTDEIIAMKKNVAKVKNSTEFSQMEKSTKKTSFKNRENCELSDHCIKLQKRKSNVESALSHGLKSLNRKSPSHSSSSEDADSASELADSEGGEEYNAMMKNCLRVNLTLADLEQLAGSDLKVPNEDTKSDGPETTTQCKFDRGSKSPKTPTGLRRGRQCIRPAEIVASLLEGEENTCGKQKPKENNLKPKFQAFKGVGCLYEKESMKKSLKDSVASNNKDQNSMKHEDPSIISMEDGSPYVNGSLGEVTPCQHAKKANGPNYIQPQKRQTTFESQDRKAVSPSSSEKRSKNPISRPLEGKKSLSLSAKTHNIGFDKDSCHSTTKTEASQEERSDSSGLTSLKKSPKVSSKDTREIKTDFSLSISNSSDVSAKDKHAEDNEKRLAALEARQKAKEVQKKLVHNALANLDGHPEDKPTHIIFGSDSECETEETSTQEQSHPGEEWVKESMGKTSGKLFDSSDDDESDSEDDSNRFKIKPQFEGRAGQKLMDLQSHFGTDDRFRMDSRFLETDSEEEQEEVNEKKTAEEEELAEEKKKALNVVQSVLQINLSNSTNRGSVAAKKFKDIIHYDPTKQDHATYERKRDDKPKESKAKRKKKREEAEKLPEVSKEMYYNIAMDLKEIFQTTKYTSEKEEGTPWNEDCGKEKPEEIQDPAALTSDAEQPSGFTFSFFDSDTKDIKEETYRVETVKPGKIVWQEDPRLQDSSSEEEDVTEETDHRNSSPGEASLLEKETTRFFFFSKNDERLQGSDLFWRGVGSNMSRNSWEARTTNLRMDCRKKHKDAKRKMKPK
UniProt Q96E29: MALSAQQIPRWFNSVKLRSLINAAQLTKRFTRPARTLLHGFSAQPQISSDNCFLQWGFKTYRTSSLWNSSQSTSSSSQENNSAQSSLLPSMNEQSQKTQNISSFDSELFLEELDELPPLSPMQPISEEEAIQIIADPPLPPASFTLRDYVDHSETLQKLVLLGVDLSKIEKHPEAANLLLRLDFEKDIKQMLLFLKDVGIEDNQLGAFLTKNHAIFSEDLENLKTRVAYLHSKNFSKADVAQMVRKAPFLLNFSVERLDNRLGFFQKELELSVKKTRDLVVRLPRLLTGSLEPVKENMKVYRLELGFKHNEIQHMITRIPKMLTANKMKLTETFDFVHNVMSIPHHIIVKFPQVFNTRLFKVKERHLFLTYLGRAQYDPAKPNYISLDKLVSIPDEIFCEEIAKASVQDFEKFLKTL
UniProt P56556, whole entry: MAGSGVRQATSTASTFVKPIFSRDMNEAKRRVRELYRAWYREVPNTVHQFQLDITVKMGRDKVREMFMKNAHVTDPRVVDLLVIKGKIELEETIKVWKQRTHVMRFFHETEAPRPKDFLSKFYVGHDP
UniProt P84157: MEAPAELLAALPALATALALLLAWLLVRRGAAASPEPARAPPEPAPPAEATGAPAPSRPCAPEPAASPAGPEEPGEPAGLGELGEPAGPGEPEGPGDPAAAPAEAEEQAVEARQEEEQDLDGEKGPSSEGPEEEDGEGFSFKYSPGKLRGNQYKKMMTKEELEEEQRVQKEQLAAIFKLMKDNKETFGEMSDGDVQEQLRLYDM
UniProt Q9Y618, whole entry: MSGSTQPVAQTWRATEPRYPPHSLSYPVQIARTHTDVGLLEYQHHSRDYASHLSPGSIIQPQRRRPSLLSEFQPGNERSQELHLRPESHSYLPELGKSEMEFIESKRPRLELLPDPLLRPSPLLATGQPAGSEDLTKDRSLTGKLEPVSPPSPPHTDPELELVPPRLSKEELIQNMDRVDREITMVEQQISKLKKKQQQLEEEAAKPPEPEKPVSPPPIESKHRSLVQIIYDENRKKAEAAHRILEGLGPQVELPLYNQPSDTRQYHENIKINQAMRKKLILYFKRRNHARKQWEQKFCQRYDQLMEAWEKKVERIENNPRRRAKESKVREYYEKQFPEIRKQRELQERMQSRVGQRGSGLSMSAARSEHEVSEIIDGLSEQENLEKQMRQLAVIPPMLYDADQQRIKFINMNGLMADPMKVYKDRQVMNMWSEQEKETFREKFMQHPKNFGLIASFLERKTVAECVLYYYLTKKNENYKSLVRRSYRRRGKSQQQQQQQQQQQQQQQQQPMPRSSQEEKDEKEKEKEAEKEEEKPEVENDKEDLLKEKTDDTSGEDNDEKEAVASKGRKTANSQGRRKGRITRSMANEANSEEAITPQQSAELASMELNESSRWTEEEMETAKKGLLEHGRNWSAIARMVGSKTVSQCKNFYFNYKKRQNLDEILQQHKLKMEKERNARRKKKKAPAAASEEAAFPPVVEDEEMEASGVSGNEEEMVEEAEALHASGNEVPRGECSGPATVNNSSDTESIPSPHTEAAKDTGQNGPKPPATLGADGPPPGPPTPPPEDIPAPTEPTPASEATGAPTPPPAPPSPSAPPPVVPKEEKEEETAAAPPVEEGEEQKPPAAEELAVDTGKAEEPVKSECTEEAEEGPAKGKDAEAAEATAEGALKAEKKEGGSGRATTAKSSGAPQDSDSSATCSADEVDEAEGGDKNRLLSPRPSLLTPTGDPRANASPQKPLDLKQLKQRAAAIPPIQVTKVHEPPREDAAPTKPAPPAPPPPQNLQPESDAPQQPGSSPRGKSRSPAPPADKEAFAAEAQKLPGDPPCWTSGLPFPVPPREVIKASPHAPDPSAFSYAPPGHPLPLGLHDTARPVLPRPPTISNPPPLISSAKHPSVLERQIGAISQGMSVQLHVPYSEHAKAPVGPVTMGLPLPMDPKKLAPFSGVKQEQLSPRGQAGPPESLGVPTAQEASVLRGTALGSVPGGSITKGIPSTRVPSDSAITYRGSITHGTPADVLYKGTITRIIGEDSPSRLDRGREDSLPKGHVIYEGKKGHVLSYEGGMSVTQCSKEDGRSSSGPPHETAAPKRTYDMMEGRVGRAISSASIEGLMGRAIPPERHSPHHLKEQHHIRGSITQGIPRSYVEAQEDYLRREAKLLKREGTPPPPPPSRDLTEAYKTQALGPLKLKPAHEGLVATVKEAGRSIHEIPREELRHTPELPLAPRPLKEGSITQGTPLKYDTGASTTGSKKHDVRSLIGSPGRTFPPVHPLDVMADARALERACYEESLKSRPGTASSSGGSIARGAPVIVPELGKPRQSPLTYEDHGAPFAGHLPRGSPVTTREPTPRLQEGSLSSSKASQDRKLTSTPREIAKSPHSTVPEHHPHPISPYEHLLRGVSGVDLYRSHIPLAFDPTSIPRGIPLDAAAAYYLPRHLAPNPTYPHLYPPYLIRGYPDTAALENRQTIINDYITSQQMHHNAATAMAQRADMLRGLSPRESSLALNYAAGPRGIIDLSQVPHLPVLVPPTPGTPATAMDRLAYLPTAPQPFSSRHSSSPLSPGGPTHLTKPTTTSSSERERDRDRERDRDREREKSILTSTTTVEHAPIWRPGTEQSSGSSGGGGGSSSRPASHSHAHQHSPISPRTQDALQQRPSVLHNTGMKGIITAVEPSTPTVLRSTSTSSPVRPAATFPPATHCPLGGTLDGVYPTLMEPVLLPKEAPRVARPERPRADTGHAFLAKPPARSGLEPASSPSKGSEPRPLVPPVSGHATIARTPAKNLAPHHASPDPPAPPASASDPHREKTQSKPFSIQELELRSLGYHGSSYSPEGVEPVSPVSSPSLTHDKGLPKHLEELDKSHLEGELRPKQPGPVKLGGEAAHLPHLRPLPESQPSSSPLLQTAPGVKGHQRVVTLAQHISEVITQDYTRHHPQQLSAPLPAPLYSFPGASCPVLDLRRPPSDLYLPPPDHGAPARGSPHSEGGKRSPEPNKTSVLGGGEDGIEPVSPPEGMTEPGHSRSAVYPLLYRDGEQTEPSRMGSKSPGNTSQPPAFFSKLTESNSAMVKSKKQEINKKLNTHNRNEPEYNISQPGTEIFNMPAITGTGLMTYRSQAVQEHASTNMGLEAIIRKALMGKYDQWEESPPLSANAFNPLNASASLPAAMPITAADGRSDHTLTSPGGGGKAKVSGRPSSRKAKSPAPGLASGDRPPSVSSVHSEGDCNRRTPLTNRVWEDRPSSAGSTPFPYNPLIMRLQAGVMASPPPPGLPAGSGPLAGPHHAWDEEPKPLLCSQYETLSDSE

Each target was assayed with COc1ccc(Cn2ccc3ccc(C(=O)NO)cc32)cc1 (assay: dose-dependent thermal stabilisation call (2D-TPP, DLPTP, 10% FDR) (binary (1 = stabilised)); higher = stabilised by the compound). Details: system: HL-60 intact cells; concentration range 0.04-10 µM.
With NECAP2 (UniProt Q9NVZ3) the “dose-dependent thermal stabilisation call” value was inactive: 0.
NDUFA5 (UniProt Q16718) was tested, and the “dose-dependent thermal stabilisation call” value was inactive: 0.
With NF2 (UniProt P35240) the “dose-dependent thermal stabilisation call” value was inactive: 0.
In the case of NARFL (UniProt Q9H6Q4), the “dose-dependent thermal stabilisation call” value is reported as inactive: 0.
With NOL8 (UniProt Q76FK4) the “dose-dependent thermal stabilisation call” value was inactive: 0.
With MTMR3 (UniProt Q13615) the “dose-dependent thermal stabilisation call” value was inactive: 0.
In the case of MTERFD1 (UniProt Q96E29), the “dose-dependent thermal stabilisation call” value is reported as inactive: 0.
With NDUFA6 (UniProt P56556) the “dose-dependent thermal stabilisation call” value was inactive: 0.
In the case of MXRA7 (UniProt P84157), the “dose-dependent thermal stabilisation call” value is reported as inactive: 0.
NCOR2 (UniProt Q9Y618) was tested, and the “dose-dependent thermal stabilisation call” value was inactive: 0.
